Measurements reported in PubChem BioAssay AID504764 (Drosophila RNAi Screening Center, 2011).

Aim: 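Genes whose knock-down alters Notch-dependent transcription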 (primary screen)
Cell system: Drosophila Kc167 cells
Knock-down reagent: long dsRNA against Drosophila genes
Time to read-out: about 5 days (4 days dsRNA, then 24 h after transfection)
Challenge: transfection of constitutively active membrane-tethered Notch lacking the extracellular domain, read 24 h later
Detection: 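Firefly luciferase from an E(spl)m3 reporter with active Notch, plus control-promoter and uninduced reporter wells for normalisation; unnormalised counts, duplicate wells a and b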
Direction: induced reporter light, run 1, well a and induced reporter light, run 1, well b: higher = more light from the Notch target reporter with active Notch; control promoter light, run 1, well a and control promoter light, run 1, well b: higher = more light from the viral control promoter (cell number, transfection, viability); uninduced reporter light, run 1, well a: higher = more light from the Notch target reporter without active Notch
Active means: 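Wells with low control signal or poorly matching duplicates excluded; duplicates averaged; per source plate, z beyond ±2 for induced/control log2 ratio or beyond ±1.8 for induced/uninduced marks a hit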
Meaning of the calls: active = modifier hit (raised or lowered Notch signal); inactive = not a hit
The deposit covers about 22,000 reagents; below is a random part of those with a known target gene and a result. Of all reagents, 403 (1.9%) were called active. 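Unnormalised raw counts per well; ratio z-scores behind the hit calls and whether each hit raises or lowers signal are not deposited.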 Not given: the amount of reagent.

target | dsRNA | induced reporter light, run 1, well a | induced reporter light, run 1, well b | control promoter light, run 1, well a | control promoter light, run 1, well b | uninduced reporter light, run 1, well a | call
pigs | DRSC17472 | 72470 | 55590 | 73450 | 74110 | 4965 | inactive
pigs | DRSC18334 | 1.46e5 | 1.65e5 | 3.03e5 | 3.35e5 | 10650 | inactive
pigs | DRSC18335 | 1.41e5 | 1.50e5 | 2.92e5 | 2.63e5 | 11535 | inactive
CG3419 (retired record) | DRSC04368 | 1.25e5 | 1.12e5 | 1.56e5 | 1.53e5 | 9350 | inactive
CG3419 (retired record) | DRSC04369 | 2.04e5 | 1.47e5 | 1.88e5 | 1.76e5 | 12625 | inactive
CG13488 | DRSC04133 | 40175 | 42570 | 54460 | 39820 | 3765 | inactive

In a second layout: entries from further up
target	dsRNA	induced reporter light, run 1, well a	induced reporter light, run 1, well b	control promoter light, run 1, well a	control promoter light, run 1, well b	uninduced reporter light, run 1, well a	call
pigs	DRSC18334	1.46e5	1.65e5	3.03e5	3.35e5	10650	inactive
pigs	DRSC18335	1.41e5	1.50e5	2.92e5	2.63e5	11535	inactive

Continued:
target | dsRNA | induced reporter light, run 1, well a | induced reporter light, run 1, well b | control promoter light, run 1, well a | control promoter light, run 1, well b | uninduced reporter light, run 1, well a | call
CG14354 | DRSC14817 | 1.53e5 | 1.61e5 | 2.08e5 | 1.99e5 | 13220 | inactive
Dop1R2 | DRSC13958 | 1.72e5 | 1.78e5 | 1.63e5 | 1.78e5 | 13700 | inactive
Dop1R2 | DRSC15379 | 1.14e5 | 1.01e5 | 1.68e5 | 1.93e5 | 11480 | inactive
Zip88E | DRSC15562 | 2.77e5 | 2.61e5 | 2.32e5 | 2.23e5 | 17015 | inactive
CG33298 | DRSC02210 | 1.20e5 | 1.51e5 | 87650 | 1.15e5 | 20770 | inactive
CG33298 | DRSC02672 | 3.24e5 | 3.52e5 | 2.55e5 | 2.52e5 | 23528 | inactive
FAM21 | DRSC06623 | 94440 | 1.20e5 | 2.29e5 | 1.70e5 | 8550 | inactive
CG6356 | DRSC16026 | 1.53e5 | 1.50e5 | 1.84e5 | 1.87e5 | 13845 | inactive
salto | DRSC06291 | 1.58e5 | 1.42e5 | 1.63e5 | 1.76e5 | 14625 | inactive
Ppat-Dpck | DRSC09744 | 2.79e5 | 2.52e5 | 4.67e5 | 3.92e5 | 15460 | inactive
CG8907 | DRSC16453 | 1.70e5 | 1.89e5 | 2.08e5 | 2.48e5 | 16445 | inactive
CG42260 | DRSC03953 | 86330 | 68280 | 66475 | 62755 | 8420 | inactive
CG42260 | DRSC04172 | 2.05e5 | 1.78e5 | 1.89e5 | 1.95e5 | 12120 | inactive
CG42260 | DRSC04385 | 1.49e5 | 1.42e5 | 1.73e5 | 1.67e5 | 10270 | inactive
